# Reference: PubChem BioAssay AID2685 (National Center for Advancing Translational Sciences (NCATS), 2010)
# This is one part of the list. Further columns of the screen follow, without active or inactive calls. Compounds called inactive in the main read-out are mostly missing here. Words in brackets tell the shape of the fitted curve; partial curves, single points and poor fits give uncertain potencies.
# Assay: qHTS Assay for Lipid Storage Modulators in Drosophila S3 Cells;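 on cell number change: cells counted by Cell Tracker Red CMTPX staining in the red channel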
# Settings: BODIPY lipid droplet fluorescence, 18-24 h; for cell number change: measured here: cell count max response, cells fed with added oleic acid
# Summary of the method: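 Laser-scanning cytometry quantifies lipid droplet accumulation (500–530 nm total intensity; droplet/cell object ratio) in oleic acid-fed (400 uM added) Drosophila S3 cells treated with a concentration series. 20 uM Triacsin C defined 100% inhibition.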
# [1] = measured here: lipid fluorescence (Fed channel) AC50, cells fed with added oleic acid
# [2] = measured here: cell number channel AC50, cells fed with added oleic acid
Compound,cell number change [%],AC50 [1],AC50 [2]
Cc1ccnc2c1NC(=O)c1cccnc1N2C1CC1,8.63,"4.11 µM [rising, full curve, poor fit]",–
CSS(=O)(=O)c1cccc2cccnc12,–,"9.2 µM [falling, partial curve]",–
Cn1c(=O)c2c(nc(Br)n2Cc2nnc(N)s2)n(C)c1=O,17.8,"2.31 µM [rising, partial curve]",–
COc1cc(/C=C/C(=O)O)cc(S(=O)(=O)Nc2ccc3c(c2)CCC3)c1OC,7.56,"29.1 µM [falling, single point]",–
C/C=C/C1=CC(=O)C[C@H](c2ccc(F)cc2)C1,-32.2,–,"29.1 µM [falling, single point]"
O=C(COC(=O)c1cccc(S(=O)(=O)N2CCOCC2)c1)Nc1ncc(C(F)(F)F)cc1Cl,–,"6.51 µM [falling, single point]",–
Cc1cc(C)nc(/N=C(\N)Nc2ccc(OCCC(C)C)cc2)n1,-55.4,"29.1 µM [falling, partial curve, poor fit]","8.2 µM [falling, partial curve]"
Clc1ccc2nc(-c3ccccc3)c(CN3CCOCC3)n2c1,-17.6,"16.4 µM [falling, partial curve]",–
COc1cccc(/C=N/NC(=O)C(C)n2nc(C)c([N+](=O)[O-])c2C)c1O (stereo not given),4.15,"3.66 µM [falling, single point]",–
CC(C)Oc1ccc(C(=O)NC2CCN(Cc3ccccc3)CC2)cc1,-46.1,–,"32.6 µM [falling, partial curve, poor fit]"
CCCn1cc(SCC(=O)NCc2ccco2)c2ccccc21,29.6,"18.4 µM [rising, single point]",–
O=C(CC(C(=O)N1CCc2ccccc21)n1ccnc1)NCc1ccccc1 (stereo not given),–,"0.103 µM [rising, full curve, poor fit]","0.58 µM [rising, full curve]"
CCn1cc(C(=O)N2CCN(c3cccc(Cl)c3)CC2)c2cc(OC)c(OC)cc2c1=O,–,"1.16 µM [rising, full curve]","0.82 µM [rising, partial curve]"
CC1C(=O)N2CCCc3cc(S(=O)(=O)NCCc4ccccc4)cc1c32 (stereo not given),7.92,"29.1 µM [falling, single point]",–
OC(Cn1cncn1)(c1ccc(F)cc1)c1ccc(Cl)cc1 (stereo not given),6.82,"0.82 µM [rising, full curve]",–
CCn1c(SCC(=O)N2CCN(c3ccccc3)CC2)nnc1-c1c[nH]c2ccccc12,10.9,"6.51 µM [rising, single point]",–
COc1cc(NC(=O)COC(=O)c2ccc(C)c(S(=O)(=O)N3CCCCC3)c2)c(C)cc1[N+](=O)[O-],-10.6,–,–
COc1ccc(NC(=O)CC2(CC(=O)N3CCOCC3)CCCC2)cc1Cl,-12.4,–,–
Cc1ccc(NC(=O)C2CCN(S(=O)(=O)c3ccc4c(c3)OCCO4)CC2)c(O)c1,-37,"6.51 µM [falling, partial curve]","5.17 µM [falling, full curve, poor fit]"
Cc1cc(C)nc(N(C#N)CCOc2ccccc2)n1,–,–,"0.461 µM [rising, full curve, poor fit]"

# Fetched by structure from above:
Compound,cell number change [%],AC50 [1],AC50 [2]
COc1ccc(NC(=O)CC2(CC(=O)N3CCOCC3)CCCC2)cc1Cl,-12.4,–,–
CCn1cc(C(=O)N2CCN(c3cccc(Cl)c3)CC2)c2cc(OC)c(OC)cc2c1=O,–,"1.16 µM [rising, full curve]","0.82 µM [rising, partial curve]"
Cc1cc(C)nc(N(C#N)CCOc2ccccc2)n1,–,–,"0.461 µM [rising, full curve, poor fit]"

# Next compounds

Compound,cell number change [%],AC50 [1],AC50 [2]
COCCCNS(=O)(=O)c1ccccc1,-23.1,"2.91 µM [falling, full curve, poor fit]",–
O=C(COC(=O)c1cnccn1)NCCc1ccc(Cl)cc1,1.5,–,–
COc1ccc(O)c(/C=N/N=C/c2cccc([N+](=O)[O-])c2)c1,-11,–,–
C#C[C@]1(O)CC[C@H]2[C@@H]3CCc4cc(OC5CCCC5)ccc4[C@H]3CC[C@@]21C,-58.1,"18.4 µM [falling, single point]","16.4 µM [falling, single point]"
O=C(NC1CCN(S(=O)(=O)c2cccc([N+](=O)[O-])c2)CC1)C1CCCCC1,-9.4,"6.51 µM [rising, single point]",–
CC1=CC(C)C2C(=O)N(CCCN(C)C)C(=O)C2C1 (stereo not given),-54.7,–,"20.6 µM [falling, single point]"
CCCc1ncc(C(=O)c2ccc(OC)cc2)n1C,15.6,–,–
COc1cc(-c2c(-c3ccsc3)sc3ccccc23)cc(OC)c1OC,9.77,"0.146 µM [rising, full curve]",–
COc1ccc(NC(C)=O)cc1CNC(=O)COc1c(C)c(C)cc(C)c1C,32.9,"14.6 µM [rising, partial curve]","9.2 µM [rising, partial curve]"
Cc1c(C)c2ccc(OCC(=O)NC3CCN(Cc4ccccc4)CC3)c(C)c2oc1=O,-7.08,"29.1 µM [rising, single point]",–
Cc1cccc(NC(=O)c2cc(S(=O)(=O)NCc3ccco3)ccc2F)c1C,-2.51,"0.146 µM [rising, full curve, poor fit]",–
CSc1ccccc1NC(=O)c1onc(C)c1Cl,6.94,"1.16 µM [falling, full curve]","0.146 µM [falling, full curve]"
N#CNC(=Nc1ccccc1)SCc1ccc(C(=O)O)cc1,-14.2,"0.461 µM [falling, full curve]",–
COc1ccc(-c2nnc(SCC(=O)Nc3cc(C)on3)o2)cc1,-3.66,"3.66 µM [falling, single point]","0.00461 µM [falling, full curve, poor fit]"
Nc1c(C(=O)NCc2ccc(Cl)cc2)sc2nc3c(c(C(F)(F)F)c12)CCC3,-0.707,–,–
Cc1ccc(NC(=O)CSCC(=O)N=c2sccn2C)cc1,24.7,"1.3 µM [rising, full curve]",–
O=C(NCCCn1ccnc1)C(=O)NCC1OCCN1S(=O)(=O)c1cc(F)ccc1F (stereo not given),22.6,"13 µM [rising, partial curve]",–
Cc1ccc2c(C)nc(Nc3nc(CSc4nc5ccccc5[nH]4)cc(=O)[nH]3)nc2c1,-30.1,"2.59 µM [falling, full curve]","5.17 µM [falling, full curve, poor fit]"
Cc1ccc2nc(-c3ccc(NC(=S)NC(=O)CC(C)C)cc3)sc2c1,-9.59,"23.1 µM [falling, partial curve]","2.31 µM [falling, partial curve]"
Cc1cc2cc(CNC(=O)c3ccc(S(=O)(=O)N4CCOCC4)cc3)ccc2n1C,18.9,"0.731 µM [falling, full curve]",–

# 2 of these compounds in another layout:
Compound | cell number change [%] | AC50 [1] | AC50 [2]
Cc1ccc(NC(=O)C2CCN(S(=O)(=O)c3ccc4c(c3)OCCO4)CC2)c(O)c1 | -37 | 6.51 µM [falling, partial curve] | 5.17 µM [falling, full curve, poor fit]
Cc1ccc2nc(-c3ccc(NC(=S)NC(=O)CC(C)C)cc3)sc2c1 | -9.59 | 23.1 µM [falling, partial curve] | 2.31 µM [falling, partial curve]

# Next part:

Compound,cell number change [%],AC50 [1],AC50 [2]
COc1cc(/C=N/NC(=S)Nc2cccnc2)cc(OC)c1O,-32.3,"0.13 µM [falling, full curve, poor fit]","2.31 µM [falling, full curve, poor fit]"
CCN(CC)CCCNC(=O)CCn1nc(-c2ccccc2)ccc1=O,9.93,–,–
CCNC(=O)CSc1nnc(C2CC2)n1-c1ccccc1,-5.2,–,–
COc1ccc(NC(=O)c2ccc3c(SCC(=O)O)c4c(nc3c2)CCCC4)c(OC)c1,13.8,"4.61 µM [falling, single point]","4.11 µM [falling, single point]"
COC(=O)Oc1nsnc1N1CCOCC1,-6.51,"16.4 µM [falling, partial curve]","1.3 µM [falling, partial curve]"
COc1ccc2c(CC(=O)OCC(=O)Nc3ccc4c(c3)OCO4)coc2c1,5.29,–,–
CCc1ccc(NC(=O)CSc2ccc(-c3ccccn3)nn2)cc1,9.84,"2.06 µM [rising, single point]",–
Cc1csc(NC(=O)CCc2c(C)nc3cc(-c4ccc(Cl)cc4)nn3c2C)n1,-30.9,"18.4 µM [falling, single point]","23.1 µM [falling, single point]"
CCC(CC)C(=O)c1c[nH]c(C(=O)NCCOC)c1,-41.4,–,"2.59 µM [falling, full curve]"
COc1ccccc1OCC(=O)Nc1ccc(S(=O)(=O)Nc2cc(C)nc(C)n2)cc1,16,–,–
Cc1cccc(CC(=O)NCCN2CCOCC2)c1,-23.2,"4.11 µM [rising, full curve]",–
CCCCn1c(N)c(N(CC)C(=O)CSCC(=O)Nc2ccc(OC)cc2)c(=O)[nH]c1=O,-21.3,–,–
COc1ccc(NS(=O)(=O)c2cn(C)cn2)cc1OC,8.87,"7.31 µM [rising, partial curve]",–
CCOC(=O)c1ccccc1NC(=O)CSc1nc2ccccc2c(=O)[nH]1,–,–,"6.51 µM [falling, single point]"
COc1ccc(CC(NC(C)=O)C(=O)NC2CCN(c3ncccc3[N+](=O)[O-])CC2)cc1 (stereo not given),46.7,"0.461 µM [rising, partial curve, poor fit]","29.1 µM [rising, single point]"
CCOC(=O)c1c(/N=C/c2cc([N+](=O)[O-])ccc2O)sc(C)c1C,1.71,"0.0651 µM [falling, partial curve, poor fit]","0.092 µM [falling, full curve, poor fit]"
COc1ccc(/C=C/C(=O)Oc2cccc(/C=N/NC(=O)Cc3ccc(Br)cc3)c2)cc1,5.41,"3.26 µM [rising, single point]",–
CCN(CC)C(=O)CSc1nc2cc3c(cc2c(=O)n1Cc1ccc2c(c1)OCO2)OCO3,–,–,"0.58 µM [rising, full curve, poor fit]"
CNC(=O)COC(=O)c1ccccc1Nc1ccccc1,–,"20.6 µM [falling, partial curve]",–
